# Experimental data published in publication doi:10.1101/2025.10.17.683117.
# Chains of the proteins cited; added tags and fusions are not shown.
# UniProt Q7Z434: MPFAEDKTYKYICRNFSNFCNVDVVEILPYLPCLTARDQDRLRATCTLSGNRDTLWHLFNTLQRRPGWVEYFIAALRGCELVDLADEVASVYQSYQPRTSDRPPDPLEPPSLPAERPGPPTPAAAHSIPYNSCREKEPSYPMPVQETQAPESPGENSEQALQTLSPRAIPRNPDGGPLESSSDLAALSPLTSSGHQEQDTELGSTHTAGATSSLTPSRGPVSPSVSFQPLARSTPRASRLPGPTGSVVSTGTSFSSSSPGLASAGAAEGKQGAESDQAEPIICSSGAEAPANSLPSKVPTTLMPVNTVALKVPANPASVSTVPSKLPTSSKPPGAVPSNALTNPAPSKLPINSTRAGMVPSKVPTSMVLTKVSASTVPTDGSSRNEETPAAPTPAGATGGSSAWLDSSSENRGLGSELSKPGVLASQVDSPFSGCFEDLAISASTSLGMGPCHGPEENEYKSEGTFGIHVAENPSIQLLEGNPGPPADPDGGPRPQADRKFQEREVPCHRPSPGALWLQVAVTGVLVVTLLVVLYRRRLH
# These are yes or no findings as the source states them, for the method shown. In cells and extracts the contact can be indirect. Some results given as binding are weak or reduced against the parent protein; the word gives no strength. Sequences can lack the tags named with a protein.
# T1: SmBiT-fused human IRF3 (pBit2.1-N[TK/SmBit]-IRF3) (human) (UniProt Q14653)
# T1 sequence: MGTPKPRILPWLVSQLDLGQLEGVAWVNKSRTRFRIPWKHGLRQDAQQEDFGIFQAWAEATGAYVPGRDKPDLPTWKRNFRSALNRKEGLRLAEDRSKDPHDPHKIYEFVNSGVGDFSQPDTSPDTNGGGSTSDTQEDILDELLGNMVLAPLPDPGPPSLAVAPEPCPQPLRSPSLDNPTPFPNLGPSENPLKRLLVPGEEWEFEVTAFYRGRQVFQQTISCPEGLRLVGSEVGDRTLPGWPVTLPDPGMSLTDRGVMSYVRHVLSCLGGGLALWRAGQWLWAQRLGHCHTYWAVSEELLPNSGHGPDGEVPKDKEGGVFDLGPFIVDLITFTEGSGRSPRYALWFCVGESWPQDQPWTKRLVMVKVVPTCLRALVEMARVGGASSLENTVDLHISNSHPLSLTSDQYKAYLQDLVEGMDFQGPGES
# Columns and labels:
# [1] = target: SmBiT-fused human MAVS (Mitochondrial antiviral signaling protein), full length (pBit2.1-N[TK/SmBit]-MAVS) (human) (UniProt Q7Z434); assay: split reporter
# [2] = target: T1, SmBiT-fused human IRF3 (pBit2.1-N[TK/SmBit]-IRF3) (human); assay: split reporter
binder,measurement,setting,value
"LgBiT-fused NSs protein of Sandfly fever Sicilian virus (pBiT1.1-N[TK/LgBiT]-SFSV-NSs) (protein, UniProt P12792 1-267) MINNNMMNSQYMFDYPAINIDVRCHRLLSSVSYVAYNKFHTHDVSTYEHCEIPLEKLRLGFGRRNSLADFYSLGELPASWGPACYFSSVKPMMYTFQGMASDLSRFDLTSFSRKGLPNVLKALSWPLGIPDCEIFSICSDRFVRGLQTRDQLMSYILRMGDSHSLDECIVQAHKKILQEARRLGLSDEHYNGYDLFREIGSLVCLRLINAEPFDTASSGEALDVRTVIRSYRASDPSTGLTEYGNSLWTPIHSHVDENDESSSDSDF",binding,[1],no binding
same,binding,[2],binds
